Measurements reported in PubChem BioAssay AID1259317 (Drosophila RNAi Screening Center, 2017).
Aim: 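Genes whose knockdown changes fly cell survival under toxic manganese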 (primary screen). System: Drosophila S2R+ cells. Knock-down reagent: long dsRNA against Drosophila genes. Timing: 5 days (4 days knockdown, then 1 day metal). Challenge: manganese chloride added to 15 mM final for 1 day. Measured: 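Cellular ATP measured by luciferase luminescence after 4 days knockdown then 1 day of 15 mM manganese chloride; z-score averaged over three plates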. Scale: mean z-score, 3 replicates: higher = more ATP, more surviving cells under manganese. Active means: 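a knockdown is active when its averaged z-score lies above 1.5 or below -1.5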. Meaning of the calls: active = hit: z-score beyond ±1.5 (ATP up or down); inactive = not a hit.
Here is one part, drawn at random, of 418 reagents tested. 34 of all reagents (8.1%) count as active. 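Hits are two-sided: raised or lowered ATP both count; higher z-score means more ATP and more surviving cells.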 Unmarked entries are inactive. The numbers tell different reagents against one gene apart. Reagent sequences are not shown. Not given: the amount of reagent.

no.	gene	dsRNA no.	mean z-score, 3 replicates
1	VhaM9.7-a (Vacuolar H[+] ATPase M9.7 subunit a)	1	-0.923
2	VhaM9.7-a (Vacuolar H[+] ATPase M9.7 subunit a)	2	0.552
3	Vha14-2 (Vacuolar H[+] ATPase 14kD subunit 2)	1	-0.275
4	Vps20 (Vacuolar protein sorting 20)	1	0.623
5	Vps20 (Vacuolar protein sorting 20)	2	-0.285
6	Vps20 (Vacuolar protein sorting 20)	3	0.0319

Ordered by “mean z-score, 3 replicates” (high to low): 2 of the entries above.
gene	dsRNA no.	mean z-score, 3 replicates
Vps20 (Vacuolar protein sorting 20)	1	0.623
Vps20 (Vacuolar protein sorting 20)	2	-0.285

More results:
no.	gene	dsRNA no.	mean z-score, 3 replicates
7	VhaPPA1-1 (Vacuolar H[+] ATPase PPA1 subunit 1)	1	1.71 (active)
8	VhaPPA1-1 (Vacuolar H[+] ATPase PPA1 subunit 1)	2	-1
9	VhaPPA1-1 (Vacuolar H[+] ATPase PPA1 subunit 1)	3	1.42
10	TrpRS-m (Tryptophanyl-tRNA synthetase, mitochondrial)	1	-1.06
11	TrpRS-m (Tryptophanyl-tRNA synthetase, mitochondrial)	2	-0.394
12	CG3902	1	-1.48
13	CG3902	2	-0.234
14	AP-1mu (Adaptor Protein complex 1, mu subunit)	1	0.85
15	AP-1mu (Adaptor Protein complex 1, mu subunit)	2	1.19
16	CG7408	1	0.168
